Results taken from the supplement of paper PMC9135407.
“And” between values parts separate entries of the source, which are not always exact repeats. Equal values may be shown once. Where a name gives a salt, the structure may show the parent alone. ± gives the standard deviation of the averaged measurements. The list shows a part of the results. Plates or batches differ in their baseline, so values are only roughly comparable.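 Primary human stellate myofibroblasts activated in culture; inactivation shown by regained lipid droplets. Readout: fraction of Hoechst-counted cells exceeding a per-plate Bodipy threshold, duplicate wells, each plate with DMSO negative and nortriptyline positive controls. Hits: control-normalized score beyond the plate's top-tenth-percentile nortriptyline wells, or among its three best wells. Final well concentrations unstated.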

System: primary human hepatic stellate cells (donor 1)
Assay: percent Bodipy-positive cells; higher = more lipid droplet accumulation
Conditions: 48 h
[1] = library stock concentration: 10 mM
[2] = library stock concentration: 3.33 mM
[3] = library stock concentration: 1 mM
[4] = library stock concentration: 5.1 mM

SMILES: NCC(O)CC(=O)O (stereo not given) [Aminohydroxybutyric acid]
- percent Bodipy-positive cells [1]: 27.8 ± 8.6%

SMILES: CC(C)CC(CC(=O)NO)C(=O)N[C@@H](Cc1ccc2ccccc2c1)C(=O)N[C@@H](C)C(=O)NCCN (stereo not given in full)
- percent Bodipy-positive cells [2]: 36.5 ± 9.1%
- percent Bodipy-positive cells [1]: 52.2 ± 7.8%

SMILES: O=C1OC2(c3ccc(O)cc3Oc3cc(OS(=O)(=O)c4c(F)c(F)c(F)c(F)c4F)ccc32)c2ccccc21 (stereo not given) [Pentafluorobenzenesulfonyl fluorescein]
- percent Bodipy-positive cells [3]: 9.71 ± 2.9%

SMILES: C[C@H](CCC(=O)O)[C@H]1CC[C@H]2[C@@H]3[C@H](O)C[C@@H]4C[C@H](O)CC[C@]4(C)[C@H]3CC[C@]12C [Chenodiol]
- percent Bodipy-positive cells: 25 ± 0.94%
- percent Bodipy-positive cells [4]: 11.9 ± 2.2%
- percent Bodipy-positive cells [1]: 9.92 ± 0.61%

SMILES: C[C@H](CCC(=O)O)[C@H]1CC[C@H]2[C@@H]3[C@H](O)C[C@@H]4C[C@H](O)CC[C@]4(C)[C@H]3CC[C@]12C [Chenodeoxycholic Acid]
- percent Bodipy-positive cells [2]: 8.36 ± 2.9%
- percent Bodipy-positive cells [1]: 12.6 ± 6%

SMILES: COc1ccc2c(c1)CCC1C2CC[C@@]2(C)C1CC[C@@H]2NCCCCCCN1C(=O)CCC1=O (stereo not given in full)
- percent Bodipy-positive cells [1]: 89.2 ± 6.8%

SMILES: C[N+](C)(C)CC[N+]1(C)Cc2c(Cl)c(Cl)c(Cl)c(Cl)c2C1 [Chlorisondamine diiodide]
- percent Bodipy-positive cells [1]: 9.93 ± 3.2%

SMILES: CN1CCN(c2c(F)cc3c(=O)c(C(=O)O)cn(CCF)c3c2F)CC1 [Fleroxacin]
- percent Bodipy-positive cells (library stock concentration: 5.4 mM): 15.4 ± 7.9%

SMILES: COc1ccc(CCN(C)CCCC(C#N)(c2cc(OC)c(OC)c(OC)c2)C(C)C)cc1OC (stereo not given)
- percent Bodipy-positive cells [1]: 73.3 ± 4%

SMILES: Nc1cc(C(Cl)=C(Cl)Cl)c(S(N)(=O)=O)cc1S(N)(=O)=O [Clorsulon]
- percent Bodipy-positive cells: 33.6 ± 7.8%
- percent Bodipy-positive cells [2]: 13.4 ± 2.7%
- percent Bodipy-positive cells (library stock concentration: 5.3 mM): 12.6 ± 7.7%
- percent Bodipy-positive cells [1]: 19.8 ± 9.9%

SMILES: Cc1ccccc1CN1C2=NCCN2C(=O)C2=C1CCN(Cc1ccccc1)C2
- percent Bodipy-positive cells [2]: 31.634 ± 0.0092%
- percent Bodipy-positive cells [1]: 44.1 ± 13%

SMILES: Cc1ccc2c(c1)C(=O)C1(O)CCN(c3ccccc3)C1=N2 (stereo not given) [Blebbistatin]
- percent Bodipy-positive cells (library stock concentration: 17.1 mM): 21.5 ± 1.4%

SMILES: Cc1ccc2c(c1)C(=O)C1(O)CCN(c3ccccc3)C1=N2 (stereo not given)
- percent Bodipy-positive cells [3]: 18.8 ± 6.1%
- percent Bodipy-positive cells [1]: 6.81 ± 2.7%

SMILES: CC[C@H](C)C(=O)O[C@H]1CCC=C2C=C[C@H](C)[C@H](CC[C@@H]3C[C@@H](O)CC(=O)O3)[C@H]21 [mevastatin]
- percent Bodipy-positive cells [1]: 43.4 ± 5%

SMILES: CC[C@H](C)C(=O)O[C@H]1CCC=C2C=C[C@H](C)[C@H](CC[C@@H]3C[C@@H](O)CC(=O)O3)[C@H]21 [Mevastatin]
- percent Bodipy-positive cells [2]: 20.5 ± 1.3%
- percent Bodipy-positive cells [4]: 29.2 ± 15%

SMILES: O=C1NC(=O)C(c2c[nH]c3ccccc23)=C1c1c[nH]c2ccccc12 [Bisindolylmaleimide IV]
- percent Bodipy-positive cells [3]: 5.75 ± 1.6%
- percent Bodipy-positive cells [2]: 7.11 ± 0.35%

SMILES: COc1c2occc2c(OC)c2c(=O)cc(C)oc12 [Khellin]
- percent Bodipy-positive cells: 32 ± 15%
- percent Bodipy-positive cells [1]: 55.6 ± 5.6%

SMILES: C1CNCCN1 [Piperazine]
- percent Bodipy-positive cells [1]: 10.1 ± 0.65%
- percent Bodipy-positive cells (library stock concentration: 23.2 mM): 9.93 ± 0.19%

SMILES: CCCCC[C@H](O)/C=C/[C@H]1CC[C@H](O)[C@@H]1CCCCCCC(=O)O [11-deoxy Prostaglandin F1.alpha.]
- percent Bodipy-positive cells [3]: 16.5 ± 1.3%

SMILES: CCCCC[C@H](O)/C=C/[C@@H]1[C@@H](CCCCCCCO)[C@@H](O)C[C@H]1O [Prostaglandin F1.alpha. Alcohol]
- percent Bodipy-positive cells [3]: 12.7 ± 4.9%

SMILES: Cc1nc(N)sc1-c1ccnc(Nc2ccc(N3CCOCC3)cc2)n1
- percent Bodipy-positive cells [1]: 96.61 ± 0.73%

SMILES: O=c1oc2ccccc2c(O)c1Cc1c(O)c2ccccc2oc1=O [Dicoumarol]
- percent Bodipy-positive cells [2]: 5.58 ± 1.4%
- percent Bodipy-positive cells [1]: 26.2 ± 4.2%

SMILES: O=c1oc2ccccc2c(O)c1Cc1c(O)c2ccccc2oc1=O [Dicumarol]
- percent Bodipy-positive cells: 8.36 ± 2.1%
- percent Bodipy-positive cells (library stock concentration: 5.9 mM): 1.58 ± 0.88%
- percent Bodipy-positive cells [1]: 8.8 ± 4%

SMILES: CS(=O)(=O)N1CCc2c(-c3cnc(N)nc3)nc(N3CCOCC3)nc21
- percent Bodipy-positive cells [2]: 4.82 ± 2.6%
- percent Bodipy-positive cells [1]: 34.2 ± 31%

SMILES: CC(=O)[C@]1(O)Cc2c(O)c3c(c(O)c2[C@@H](O[C@H]2C[C@H](N)[C@H](O)[C@H](C)O2)C1)C(=O)c1ccccc1C3=O
- percent Bodipy-positive cells [1]: 100%

SMILES: CC(=O)[C@]1(O)Cc2c(O)c3c(c(O)c2[C@@H](O[C@H]2C[C@H](N)[C@H](O)[C@H](C)O2)C1)C(=O)c1ccccc1C3=O [Idarubicin]
- percent Bodipy-positive cells (library stock concentration: 4 mM): 100%
- percent Bodipy-positive cells [1]: 100%

SMILES: CC(=O)[C@]1(O)Cc2c(O)c3c(c(O)c2[C@@H](O[C@H]2C[C@H](N)[C@H](O)[C@H](C)O2)C1)C(=O)c1ccccc1C3=O [Idarubicin HCl]
- percent Bodipy-positive cells [2]: 100%
- percent Bodipy-positive cells [1]: 100%

SMILES: COc1cccc(NC(=O)/C=C/c2ccc(Cl)cc2)c1
- percent Bodipy-positive cells [1]: 68 ± 6%

SMILES: O=C1c2ccccc2C(=O)c2c1ccc(O)c2O [Alizarin]
- percent Bodipy-positive cells [2]: 6.94 ± 1.2%
- percent Bodipy-positive cells [1]: 19.3% and 37.2%

SMILES: CCCCC/C=C/C=C1/C=CC(=O)[C@@H]1C/C=C\CCCC(=O)O [15-deoxy-.DELTA.12,14-Prostaglandin A2]
- percent Bodipy-positive cells [3]: 13.9 ± 2.1%

SMILES: N[C@@H]1[C@H]2CN(c3nc4c(cc3F)c(=O)c(C(=O)O)cn4-c3ccc(F)cc3F)C[C@@H]12 [Trovafloxacin mesylate]
- percent Bodipy-positive cells [1]: 51.5 ± 6.8%

SMILES: c1ccc(CNc2nc(NCc3ccccc3)c3ccccc3n2)cc1
- percent Bodipy-positive cells [2]: 92.5 ± 5.6%
- percent Bodipy-positive cells [1]: 100%

SMILES: CC(/C=C1\SC(=S)N(CC(=O)O)C1=O)=C\c1ccccc1 [Epalrestat]
- percent Bodipy-positive cells [2]: 7.3 ± 2.1%
- percent Bodipy-positive cells [1]: 14.7 ± 2.5%

SMILES: CCC(=O)OCN1C(=O)C=CC1=O
- percent Bodipy-positive cells [1]: 8.61 ± 2.5%

SMILES: C[C@H](N)C(=O)CCCCCC(=O)O [KAPA (hydrochloride)]
- percent Bodipy-positive cells [3]: 8.13 ± 0.93%

SMILES: NS(=O)(=O)C#Cc1ccccc1 [Pifithrin->m]
- percent Bodipy-positive cells [1]: 98.3 ± 1.9%

SMILES: CN1CCN(CCCN2c3ccccc3Sc3ccc(Cl)cc32)CC1 [Prochlorperazine dimaleate]
- percent Bodipy-positive cells: 69.5 ± 7.9%
- percent Bodipy-positive cells [1]: 79.6 ± 2.9%

SMILES: CN1CCN(CCCN2c3ccccc3Sc3ccc(Cl)cc32)CC1 [Prochlorperazine edisylate]
- percent Bodipy-positive cells (library stock concentration: 3.5 mM): 70.7 ± 3.8%
- percent Bodipy-positive cells [1]: 53.5 ± 5.6%

SMILES: COC(=O)CCSCc1ccc(-c2onc(C)c2NC(=O)OC(C)c2ccccc2Cl)cc1 (stereo not given)
- percent Bodipy-positive cells [2]: 20.8 ± 5.8%
- percent Bodipy-positive cells [1]: 15.4 ± 9%

SMILES: Cc1nc(=O)c2cc(CN(C)c3ccc(C(=O)N[C@@H](CCC(=O)O)C(=O)O)s3)ccc2[nH]1
- percent Bodipy-positive cells [1]: 15 ± 7.9%

SMILES: Cc1nc(=O)c2cc(CN(C)c3ccc(C(=O)N[C@@H](CCC(=O)O)C(=O)O)s3)ccc2[nH]1 [Raltitrexed]
- percent Bodipy-positive cells [2]: 14.5 ± 2.8%
- percent Bodipy-positive cells [1]: 19.2 ± 1.5%

SMILES: CCCCN1CCCC1CNC(=O)c1cc(C#N)c2ccccc2c1OC (stereo not given) [Nafadotride]
- percent Bodipy-positive cells [1]: 49.6% and 24.6%

SMILES: c1ccc2c3c([nH]c2c1)C1C2CCC(C4CCCNC42)N1CC3 (stereo not given) [Nitrarine dihydrochloride]
- percent Bodipy-positive cells: 36.7 ± 3.1%

SMILES: CN(Cc1ccccc1)C(=O)[C@H](Cc1ccc2ccccc2c1)NC(=O)[C@@H]1CCCN1C(=O)Nc1ccccc1[N+](=O)[O-]
- percent Bodipy-positive cells [1]: 7.1 ± 0.2%

SMILES: CC(=O)Nc1nc(C)c(-c2ccc(Cl)c(S(=O)(=O)NCCO)c2)s1
- percent Bodipy-positive cells (library stock concentration: 80 uM): 8.61 ± 1.9%
- percent Bodipy-positive cells (library stock concentration: 400 uM): 6.93 ± 0.8%
- percent Bodipy-positive cells (library stock concentration: 2 mM): 8.16 ± 0.59%
- percent Bodipy-positive cells [2]: 8.27 ± 0.44%
- percent Bodipy-positive cells [1]: 19.2% and 11.2%
